These are yes or no findings as the source states them, for the method shown. Binding calls can cover weak binding; strength is not graded here.

We go through one substance from article PMC10127582.

This experiment has as its target T1, BODIPY-PodJ_(CC4-6) (C. crescentus) (UniProt Q9ZG88).
T1 sequence (chain, BODIPY FL N-(2-aminoethyl)maleimide on the cysteine added at the N terminus): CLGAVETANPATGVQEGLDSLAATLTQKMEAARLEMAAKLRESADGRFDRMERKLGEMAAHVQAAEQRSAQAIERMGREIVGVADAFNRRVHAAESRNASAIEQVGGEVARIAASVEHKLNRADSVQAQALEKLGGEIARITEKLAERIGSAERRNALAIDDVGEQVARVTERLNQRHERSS
Description: fluorescence polarisation; 100 nM BODIPY-labelled PodJ variant mixed with PopZ (0 to 16 μM in the methods; 16 μM in the results; 10 μM in the legend), room temperature, 45 min (methods) or 2 h (results); excitation 470 nm, emission 530 nm; bovine serum albumin as negative control; both purified. (In general: Polarisation of emitted light reports the rotation of a fluorescent probe.)

Take PopZ (C. crescentus): the binding entry was “binds”.
